# The other results are listed elsewhere or left out. Most values lie at the level of the controls, where differences are scatter.
# Amino acid sequences for entries named in this document (tags omitted). A change or cut given only in a name is not applied to a line headed by its entry.
# UniProt Q8K0T0: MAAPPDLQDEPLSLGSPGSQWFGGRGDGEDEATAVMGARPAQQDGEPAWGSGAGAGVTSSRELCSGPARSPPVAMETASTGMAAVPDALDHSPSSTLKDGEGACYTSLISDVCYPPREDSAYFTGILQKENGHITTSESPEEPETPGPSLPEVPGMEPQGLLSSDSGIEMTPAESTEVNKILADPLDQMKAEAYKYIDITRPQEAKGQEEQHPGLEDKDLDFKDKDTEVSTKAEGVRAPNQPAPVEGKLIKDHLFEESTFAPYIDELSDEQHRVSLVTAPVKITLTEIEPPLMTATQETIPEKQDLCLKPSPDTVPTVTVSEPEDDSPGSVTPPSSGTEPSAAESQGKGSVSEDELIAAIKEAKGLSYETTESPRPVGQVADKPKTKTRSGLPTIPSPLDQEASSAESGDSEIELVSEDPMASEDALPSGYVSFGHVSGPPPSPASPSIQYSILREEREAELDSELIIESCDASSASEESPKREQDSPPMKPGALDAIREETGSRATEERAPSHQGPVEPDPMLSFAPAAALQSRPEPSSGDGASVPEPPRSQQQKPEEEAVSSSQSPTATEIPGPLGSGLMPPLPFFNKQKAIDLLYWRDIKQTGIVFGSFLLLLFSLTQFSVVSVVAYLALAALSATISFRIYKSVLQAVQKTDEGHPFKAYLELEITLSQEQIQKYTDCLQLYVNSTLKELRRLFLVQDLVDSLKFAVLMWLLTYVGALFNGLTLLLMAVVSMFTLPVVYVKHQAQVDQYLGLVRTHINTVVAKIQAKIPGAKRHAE
# UniProt Q8CFY5: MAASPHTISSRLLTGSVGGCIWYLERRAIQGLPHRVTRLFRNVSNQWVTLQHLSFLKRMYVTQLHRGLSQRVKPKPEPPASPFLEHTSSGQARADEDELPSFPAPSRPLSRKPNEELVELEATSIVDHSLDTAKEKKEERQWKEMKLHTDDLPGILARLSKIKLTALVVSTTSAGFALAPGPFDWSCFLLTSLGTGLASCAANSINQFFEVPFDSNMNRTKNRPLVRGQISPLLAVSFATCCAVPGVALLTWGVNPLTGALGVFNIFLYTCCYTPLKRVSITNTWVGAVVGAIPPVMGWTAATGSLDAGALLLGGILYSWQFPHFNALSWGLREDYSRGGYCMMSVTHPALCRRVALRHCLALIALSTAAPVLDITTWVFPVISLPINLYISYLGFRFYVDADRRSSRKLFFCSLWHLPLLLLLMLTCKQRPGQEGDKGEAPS
# UniProt Q8CHT3, whole entry: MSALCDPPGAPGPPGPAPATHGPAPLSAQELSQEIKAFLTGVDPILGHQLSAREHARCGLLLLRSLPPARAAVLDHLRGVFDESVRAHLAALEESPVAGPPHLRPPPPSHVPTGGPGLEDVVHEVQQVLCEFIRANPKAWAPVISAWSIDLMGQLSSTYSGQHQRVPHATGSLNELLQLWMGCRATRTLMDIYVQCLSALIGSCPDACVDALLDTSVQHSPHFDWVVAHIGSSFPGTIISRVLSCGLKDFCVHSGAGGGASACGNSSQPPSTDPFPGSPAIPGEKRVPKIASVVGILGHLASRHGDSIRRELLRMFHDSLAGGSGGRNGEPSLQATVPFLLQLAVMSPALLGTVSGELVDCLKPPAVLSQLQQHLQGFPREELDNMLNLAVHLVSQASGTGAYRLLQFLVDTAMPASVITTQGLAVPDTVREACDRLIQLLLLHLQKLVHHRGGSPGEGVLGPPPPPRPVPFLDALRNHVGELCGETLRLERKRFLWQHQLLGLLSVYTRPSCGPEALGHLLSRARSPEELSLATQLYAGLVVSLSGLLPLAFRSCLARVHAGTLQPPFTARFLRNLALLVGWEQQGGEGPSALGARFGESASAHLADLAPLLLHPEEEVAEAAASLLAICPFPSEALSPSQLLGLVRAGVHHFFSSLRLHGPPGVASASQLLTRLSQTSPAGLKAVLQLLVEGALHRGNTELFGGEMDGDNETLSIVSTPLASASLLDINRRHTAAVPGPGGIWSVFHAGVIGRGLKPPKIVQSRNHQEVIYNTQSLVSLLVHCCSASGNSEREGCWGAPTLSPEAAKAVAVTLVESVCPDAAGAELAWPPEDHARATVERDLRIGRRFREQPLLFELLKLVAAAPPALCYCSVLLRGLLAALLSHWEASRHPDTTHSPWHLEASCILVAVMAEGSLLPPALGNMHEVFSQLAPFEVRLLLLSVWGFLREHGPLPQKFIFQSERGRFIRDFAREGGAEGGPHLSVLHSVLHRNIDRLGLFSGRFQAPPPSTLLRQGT
# UniProt Q8CFH6: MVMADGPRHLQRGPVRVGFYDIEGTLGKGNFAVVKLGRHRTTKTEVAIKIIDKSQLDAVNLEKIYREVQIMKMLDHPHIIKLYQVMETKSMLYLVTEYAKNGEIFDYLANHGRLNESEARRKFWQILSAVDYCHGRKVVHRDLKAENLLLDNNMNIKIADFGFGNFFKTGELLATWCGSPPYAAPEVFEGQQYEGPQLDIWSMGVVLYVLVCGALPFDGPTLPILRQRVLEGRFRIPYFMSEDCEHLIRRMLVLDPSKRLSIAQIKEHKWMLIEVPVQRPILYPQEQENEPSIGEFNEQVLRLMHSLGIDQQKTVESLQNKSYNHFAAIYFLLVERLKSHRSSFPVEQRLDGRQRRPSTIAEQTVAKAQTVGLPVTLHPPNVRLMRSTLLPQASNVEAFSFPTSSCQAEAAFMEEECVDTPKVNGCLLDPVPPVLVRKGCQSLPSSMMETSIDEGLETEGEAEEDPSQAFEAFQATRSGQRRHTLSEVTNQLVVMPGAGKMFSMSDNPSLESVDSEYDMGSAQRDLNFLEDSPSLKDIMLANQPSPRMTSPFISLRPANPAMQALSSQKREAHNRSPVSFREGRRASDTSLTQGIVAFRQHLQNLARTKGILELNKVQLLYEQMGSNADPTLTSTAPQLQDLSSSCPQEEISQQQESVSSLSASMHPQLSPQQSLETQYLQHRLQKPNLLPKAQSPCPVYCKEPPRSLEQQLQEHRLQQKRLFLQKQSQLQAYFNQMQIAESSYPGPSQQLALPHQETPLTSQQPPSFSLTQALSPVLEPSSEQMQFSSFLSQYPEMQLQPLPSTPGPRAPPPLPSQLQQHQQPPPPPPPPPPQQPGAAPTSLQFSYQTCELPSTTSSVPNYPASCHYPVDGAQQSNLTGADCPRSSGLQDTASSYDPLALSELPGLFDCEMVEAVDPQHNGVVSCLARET
# UniProt Q8JZZ0: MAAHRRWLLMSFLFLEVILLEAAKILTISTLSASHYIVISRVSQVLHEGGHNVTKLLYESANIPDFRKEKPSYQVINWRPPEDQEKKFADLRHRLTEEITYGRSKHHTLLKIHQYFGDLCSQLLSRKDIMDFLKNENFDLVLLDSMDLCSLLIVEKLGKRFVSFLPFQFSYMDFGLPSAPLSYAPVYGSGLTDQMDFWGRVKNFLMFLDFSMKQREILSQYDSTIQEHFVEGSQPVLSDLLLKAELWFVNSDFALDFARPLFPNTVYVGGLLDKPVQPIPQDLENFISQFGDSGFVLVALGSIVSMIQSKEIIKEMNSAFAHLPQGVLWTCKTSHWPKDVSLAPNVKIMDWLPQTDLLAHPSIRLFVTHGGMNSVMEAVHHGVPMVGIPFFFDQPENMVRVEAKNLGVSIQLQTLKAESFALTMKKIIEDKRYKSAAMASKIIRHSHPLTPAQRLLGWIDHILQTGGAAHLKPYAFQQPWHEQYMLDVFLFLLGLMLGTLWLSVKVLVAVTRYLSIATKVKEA
# UniProt Q8CAY6: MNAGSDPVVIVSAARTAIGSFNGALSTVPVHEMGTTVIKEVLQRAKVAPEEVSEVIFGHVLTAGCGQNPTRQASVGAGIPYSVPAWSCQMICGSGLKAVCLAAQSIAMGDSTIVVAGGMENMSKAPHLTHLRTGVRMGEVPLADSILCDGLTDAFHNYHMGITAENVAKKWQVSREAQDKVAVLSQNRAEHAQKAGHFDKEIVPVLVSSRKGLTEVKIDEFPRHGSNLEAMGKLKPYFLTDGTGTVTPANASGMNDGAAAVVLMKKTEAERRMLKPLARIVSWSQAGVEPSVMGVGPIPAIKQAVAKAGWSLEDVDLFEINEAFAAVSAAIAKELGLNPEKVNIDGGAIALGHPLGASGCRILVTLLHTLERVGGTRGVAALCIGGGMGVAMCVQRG
# UniProt Q8CI61: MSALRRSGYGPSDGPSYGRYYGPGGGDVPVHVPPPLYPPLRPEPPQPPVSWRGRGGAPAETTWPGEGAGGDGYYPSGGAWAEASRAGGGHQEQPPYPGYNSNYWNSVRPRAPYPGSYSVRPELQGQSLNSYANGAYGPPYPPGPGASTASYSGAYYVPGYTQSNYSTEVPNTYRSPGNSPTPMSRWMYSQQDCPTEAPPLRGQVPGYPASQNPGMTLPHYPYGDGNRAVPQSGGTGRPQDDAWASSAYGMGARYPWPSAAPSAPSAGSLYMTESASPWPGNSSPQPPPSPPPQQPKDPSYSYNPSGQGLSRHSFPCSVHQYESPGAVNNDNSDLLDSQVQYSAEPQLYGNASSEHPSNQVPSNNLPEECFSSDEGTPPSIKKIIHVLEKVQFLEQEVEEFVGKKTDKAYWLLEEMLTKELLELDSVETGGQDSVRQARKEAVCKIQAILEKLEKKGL
# UniProt Q8CFV9: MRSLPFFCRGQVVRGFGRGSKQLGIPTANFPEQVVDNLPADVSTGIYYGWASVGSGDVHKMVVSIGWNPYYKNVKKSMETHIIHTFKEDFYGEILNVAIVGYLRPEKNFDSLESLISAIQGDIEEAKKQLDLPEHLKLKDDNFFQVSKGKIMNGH
# UniProt Q8CG19: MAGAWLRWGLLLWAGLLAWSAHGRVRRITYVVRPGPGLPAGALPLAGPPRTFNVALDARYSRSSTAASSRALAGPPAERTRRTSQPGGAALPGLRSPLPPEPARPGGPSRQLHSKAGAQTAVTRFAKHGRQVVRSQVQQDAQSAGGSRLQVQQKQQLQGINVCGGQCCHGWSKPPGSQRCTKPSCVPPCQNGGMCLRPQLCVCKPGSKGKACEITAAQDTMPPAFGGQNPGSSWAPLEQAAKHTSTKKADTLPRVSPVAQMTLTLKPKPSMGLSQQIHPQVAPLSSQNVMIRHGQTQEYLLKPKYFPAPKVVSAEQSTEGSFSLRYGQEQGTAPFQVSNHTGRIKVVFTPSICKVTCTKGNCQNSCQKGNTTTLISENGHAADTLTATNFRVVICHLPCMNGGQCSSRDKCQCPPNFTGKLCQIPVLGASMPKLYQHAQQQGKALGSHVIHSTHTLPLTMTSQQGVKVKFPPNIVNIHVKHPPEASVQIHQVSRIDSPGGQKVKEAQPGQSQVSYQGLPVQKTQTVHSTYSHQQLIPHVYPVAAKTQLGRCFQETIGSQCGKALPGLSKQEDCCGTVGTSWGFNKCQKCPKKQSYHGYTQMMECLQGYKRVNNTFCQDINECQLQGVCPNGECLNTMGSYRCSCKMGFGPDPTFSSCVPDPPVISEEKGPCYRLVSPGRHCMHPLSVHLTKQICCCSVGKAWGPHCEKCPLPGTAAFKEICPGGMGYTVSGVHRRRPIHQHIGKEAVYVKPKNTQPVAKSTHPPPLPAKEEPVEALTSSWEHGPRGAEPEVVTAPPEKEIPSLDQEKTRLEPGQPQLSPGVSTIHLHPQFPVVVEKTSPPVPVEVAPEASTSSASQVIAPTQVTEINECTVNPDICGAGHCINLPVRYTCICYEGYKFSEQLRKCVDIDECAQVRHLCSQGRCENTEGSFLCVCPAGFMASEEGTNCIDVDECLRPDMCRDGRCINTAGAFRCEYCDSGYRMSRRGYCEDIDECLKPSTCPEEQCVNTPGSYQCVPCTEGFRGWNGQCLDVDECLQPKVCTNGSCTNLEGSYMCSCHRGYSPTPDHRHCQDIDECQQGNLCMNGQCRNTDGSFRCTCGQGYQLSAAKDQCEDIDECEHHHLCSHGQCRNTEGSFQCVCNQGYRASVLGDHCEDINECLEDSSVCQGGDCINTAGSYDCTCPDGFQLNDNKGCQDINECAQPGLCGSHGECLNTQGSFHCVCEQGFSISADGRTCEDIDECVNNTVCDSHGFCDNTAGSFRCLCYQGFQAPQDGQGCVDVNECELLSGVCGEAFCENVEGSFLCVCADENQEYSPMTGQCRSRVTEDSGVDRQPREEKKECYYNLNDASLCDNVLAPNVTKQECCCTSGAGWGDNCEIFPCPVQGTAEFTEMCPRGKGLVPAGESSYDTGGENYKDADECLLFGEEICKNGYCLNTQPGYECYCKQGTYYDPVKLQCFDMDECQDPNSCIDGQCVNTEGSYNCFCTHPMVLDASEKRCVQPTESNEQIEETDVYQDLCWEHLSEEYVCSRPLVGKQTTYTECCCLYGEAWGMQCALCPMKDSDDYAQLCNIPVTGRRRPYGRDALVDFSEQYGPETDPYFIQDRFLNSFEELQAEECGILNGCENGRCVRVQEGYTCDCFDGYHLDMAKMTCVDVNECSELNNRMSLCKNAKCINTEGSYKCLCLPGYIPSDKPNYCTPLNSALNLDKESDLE
# Compound: CN[C@@H]1C[C@H]2O[C@@](C)([C@@H]1OC)n1c3ccccc3c3c4c(c5c6ccccc6n2c5c31)C(=O)NC4 [staurosporine]
# Experiment: log2 fold change of tryptic peptide abundance, ligand vs vehicle (limited proteolysis) (log2 ratio); higher = more trypsin-susceptible (destabilized)
# Details: ligand concentration: 20 uM; sample: mouse liver crude lysate; replicate design: treated separately
row,Target,log2 fold change
1,"UniProt Q8CCB4 (peptide sequence: IKQEIIKK, peptide start residue: 252)",-0.678
2,"UniProt Q8K0T0 (peptide sequence: EQDSPPMKPGALDAIR, peptide start residue: 484)",0.291
3,"UniProt Q8CD26 (peptide sequence: NILLTDHFQYSR, peptide start residue: 384)",-0.157
4,"UniProt Q8CHI8 (peptide sequence: LGPEHIIK, peptide start residue: 2723)",0.26
5,"UniProt Q8CGI1 (peptide sequence: VVDLALLTEQK, peptide start residue: 1093)",0.209
6,"UniProt Q8CE47 (peptide sequence: GHSEWAETMPR, peptide start residue: 504)",0.473
7,"UniProt Q8CHR6 (peptide sequence: TGMCACHSPLPSIR, peptide start residue: 319)",-0.756
8,"UniProt Q8CFY5 (peptide sequence: LHTDDLPGILAR, peptide start residue: 147)",0.493
9,"UniProt Q8CHT3 (peptide sequence: EHARCGLLLLR, peptide start residue: 54)",-0.72
10,"UniProt Q8K0C1 (peptide sequence: EFTLLCR, peptide start residue: 946)",0.168
11,"UniProt Q8CFH6 (peptide sequence: SSFPVEQR, peptide start residue: 342)",0.259
12,"UniProt Q8JZZ0 (peptide sequence: AESFALTMK, peptide start residue: 417)",-0.161
13,"UniProt Q8CCA0 (peptide sequence: RPASGDDLSAK, peptide start residue: 68)",-0.407
14,"UniProt Q8CG47 (peptide sequence: EKEIQEK, peptide start residue: 475)",0.154
15,"UniProt Q8CFT2 (peptide sequence: GQHWPPLPK, peptide start residue: 822)",-0.199
16,"UniProt Q8CG46 (peptide sequence: SVSDHITR, peptide start residue: 437)",-0.531

row,Target,log2 fold change
1,"UniProt Q8K023 (peptide sequence: IEDGTVKR, peptide start residue: 69)",-0.279
2,"UniProt Q8CHH5 (peptide sequence: DQAHAVTPDKSQFR, peptide start residue: 708)",0.264
3,"UniProt Q8CAY6 (peptide sequence: VAVLSQNR, peptide start residue: 181)",-0.107
4,"UniProt Q8CBA2 (peptide sequence: LATLCSNLYHR, peptide start residue: 111)",-0.136
5,"UniProt Q8CI61 (peptide sequence: SGYGPSDGPSYGR, peptide start residue: 7)",-0.0642
6,"UniProt Q8CFV9 (peptide sequence: SLPFFCR, peptide start residue: 3)",-0.0937
7,"UniProt Q8CJ61 (peptide sequence: DVDSRPEIQRLDT, peptide start residue: 196)",-0.134
8,"UniProt Q8CIB5 (peptide sequence: INQLYEQAK, peptide start residue: 291)",-0.471
9,"UniProt Q8CG19 (peptide sequence: HGQTQEYLLKPK, peptide start residue: 293)",-0.709
10,"UniProt Q8K0R6 (peptide sequence: WSQLCLHR, peptide start residue: 222)",-0.509
11,"UniProt Q8CBE3 (peptide sequence: QVVTASWDR, peptide start residue: 297)",-0.36
12,"UniProt Q8CGB6 (peptide sequence: HFLIETGPK, peptide start residue: 1192)",-0.676
13,"UniProt Q8CHQ0 (peptide sequence: AREEHTSTVNK, peptide start residue: 245)",0.632
14,"UniProt Q8K0Z7 (peptide sequence: GVVVVGVEDREK, peptide start residue: 184)",0.208
15,"UniProt Q8CGE8 (peptide sequence: LINFCERVPTLK, peptide start residue: 65)",-0.196

# 2 entries drawn at random from the list so far, as already listed:
row,Target,log2 fold change
8,"UniProt Q8CIB5 (peptide sequence: INQLYEQAK, peptide start residue: 291)",-0.471
5,"UniProt Q8CI61 (peptide sequence: SGYGPSDGPSYGR, peptide start residue: 7)",-0.0642
